The values are deposited in ChEMBL (CHEMBL3988442, “University of Dundee, Small-Polar-MMV Screening Library” (2021)).

A: 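Whole-cell assay for inhibitors of Mycobacterium tuberculosis growth, labelled Cornell in the record; the read-out is not stated. The concentration is filed as 10 mM, unlikely as a test dose, so the dose is not known. Higher means stronger inhibition (inferred from two other growth screens of the library). About 53,000 compounds were tested under these conditions; 1.7% (about 900) showed 50% or more at least once.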
B: 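Assay on Mycobacterium tuberculosis, filed only as a heat shock assay from Cornell; the read-out is not stated. The concentration is filed as 10 mM, unlikely as a test dose, so the dose is not known. Direction is inferred from retests: higher values go with stronger inhibition. About 69,000 compounds were tested under these conditions; 1.4% (about 930) showed 50% or more at least once.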

Values are the deposited “Percent Effect”, in %. How 0% and 100% were set is not recorded. Most values in the screen are low, and negative values occur. Compounds were drawn at random from those tested, without regard to their results.

COc1ccccc1CNc1ncnc2c1NC(=O)CN2 read A: -4.704%; B: -39.05%.
O=C(c1ccoc1)N1CCC2(C1)CN(c1ncc(F)cn1)C2 read A: 13.73%; B: -15.15%.
COc1ccccc1-c1nccnc1C1CCN(C(C)=O)CC1 read A: -20.11%; B: -5.04%.
Cc1ccccc1-n1c(C)cc(=O)[nH]c1=O read A: -1.753%; B: -7.831%.
O=C(Nc1nncs1)N(Cc1cccc(F)c1)C1CC1 read A: 3.622%; B: 24.04%.
CCn1nc(C)c2c1cnn2CC(=O)N1CCN(C)CC1 read A: 13.07%; B: 7.835%.
COc1ccc(NC(=O)CCC2CCCN(S(=O)(=O)C3CC3)C2)cc1Cl (centres unmarked) read A: 19.78%; B: 15.44%.
O=C(O)c1cccnc1CN1CCCCC1CCc1cccs1 (centres unmarked) read B: 0.5443%.
CCn1ncc(CN(C)C(=O)c2ccn(C)n2)c1C read A: 4.301%; B: 10.73%.
CC(C)(C)c1noc(CCC(=O)N2CCNC(=O)C2)n1 read B: -112.7%.
COC(=O)c1ccc(NC2CCN(CC(F)(F)F)C2=O)cc1C (centres unmarked) read B: 17.07%.
CCNS(=O)(=O)c1cnccc1N1CCN(CCO)CC1 read B: 3.749%.
Cc1cnn(CC2CCCN2CC(=O)N(C)CCC#N)c1 (centres unmarked) read B: 5.337%.
[H][C@@]12CCN(C(=O)c3ccno3)[C@]1([H])CCC(=O)N2Cc1csc(C)n1 read A: -1%; B: 2.772%.
CC(C)c1nccn1C1CCCN(C(=O)c2ccsc2)C1 (centres unmarked) read A: 21.05%; B: 12.48%.
Cn1cnc2c1C(COCC1CC1)CN(c1ncccn1)C2.O=C(O)C(F)(F)F.O=C(O)C(F)(F)F (centres unmarked) read B: -1.596%.
CC(C)N1CCOCC2(CCN(c3cnccn3)CC2)C1.O=C(O)C(F)(F)F read A: -13.88%; B: 14.96%.
CCN(C)C(=O)c1ccnn1-c1ccc2ccccn12 read A: 14.6%; B: 7.09%.
CC(C)(C)CNCC1(O)CCCN(Cc2ccccc2F)C1=O (centres unmarked) read A: 14.77%; B: -9.902%.
Cn1cc(C(O)CNC(=O)c2cc(Br)ccc2Cl)cn1 (centres unmarked) read A: 2.657%; B: 0.6753%.
O=C(O)C(F)(F)F.O=C(O)C(F)(F)F.[H][C@@]12C[C@@H](OCc3cccnc3)CN1CCN(C(=O)c1ccc(F)cc1)C2 read A: 19.5%; B: -4.055%.
O=C(Nc1ccc(=O)n(Cc2ccccc2Cl)c1)C1CC1 read A: 11.64%; B: 42.02%.
CN1CCC(Cc2cnc(CNC(=O)Cc3cccc(F)c3)cn2)CC1 read A: 45.39%; B: 9.586%.
CN(C)C(=O)C1(Oc2ccc(Cl)cc2)CCNCC1 read A: 43.62%; B: -0.9265%.
CCN(Cc1cc(F)c(OC)c(Cl)c1)Cc1noc(CC(C)C)n1 read A: 7.961%; B: -8.809%.
CCOC(=O)Cc1n[nH]c(-c2cncc(Br)c2)n1 read A: 1.187%; B: 2.693%.
CCc1nc(C2CCCN2C(=O)CCc2cscn2)no1 (centres unmarked) read A: -41.92%; B: -14.45%.

3 of the entries, repeated:

For CCn1ncc(CN(C)C(=O)c2ccn(C)n2)c1C the result was A: 4.301%; B: 10.73%.
For COc1ccccc1-c1nccnc1C1CCN(C(C)=O)CC1 the result was A: -20.11%; B: -5.04%.
For CC(C)N1CCOCC2(CCN(c3cnccn3)CC2)C1.O=C(O)C(F)(F)F the result was A: -13.88%; B: 14.96%.